These results are taken from the supplement of paper PMC9135407.

The subject of the experiment is primary human hepatic stellate cells (donor 1). Nature of the experiment: percent Bodipy-positive cells; higher = more lipid droplet accumulation. Conditions: 48 h.
[1] abbreviates: library stock concentration: 3.33 mM.
Where [2] appears, read: library stock concentration: 10 mM.
The mark [3] stands for this setting: library stock concentration: 1 mM.

Where “and” joins values, the source holds several entries; their conditions need not be identical. Equal entries are not always repeated. Structures can show the parent of a compound that is named as a salt. ± gives the standard deviation of the averaged measurements. Some of the results follow. Plates or batches differ in their baseline, so values are only roughly comparable.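 Assay uses culture-activated primary human stellate myofibroblasts; lipid droplet recovery indicates inactivation. Measured: proportion of Hoechst-counted cells over a plate-specific Bodipy cutoff, duplicate wells, DMSO and nortriptyline as per-plate negative and positive controls. A hit scores, control-normalized, above the plate's top-tenth-percentile nortriptyline wells or ranks among its three best wells. Final well concentrations not reported.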

On to `COC(=O)c1ccc2c(c1)NC(=O)C2=C(Nc1ccc(N(C)C(=O)CN2CCN(C)CC2)cc1)c1ccccc1` [Nintedanib (BIBF 1120)], for which the “percent Bodipy-positive cells” value was found to be 87.7 ± 5.9% under setting [1] and 90.8 ± 1.6% under setting [2]. Turning to `CN1CCOC(c2ccccc2)c2ccccc2C1` (stereo not given) [Nefopam hydrochloride], the “percent Bodipy-positive cells” value came to 63.1 ± 5.4%. For the compound `CN1CCOC(c2ccccc2)c2ccccc2C1` (stereo not given) [Nefopam], the “percent Bodipy-positive cells” value by setting is: (library stock concentration: 7.9 mM) 64.9 ± 5.4%; under setting [2], 57.1 ± 12%. For `N=C(N)NCCCCN` [Agmatine sulfate], the “percent Bodipy-positive cells” value under setting [2] is 45.9% and 28.2%. On the same count and under the same terms, for `O=S(=O)(O)c1cc(I)c(O)c2ncccc12` the value was 25.7 ± 6.5%.

With `c1cc(-c2cnn3cc(-c4ccc(OCCN5CCCCC5)cc4)cnc23)ccn1` [AMPK Inhibitor, Compound C], the “percent Bodipy-positive cells” value under setting [1] was 16.2 ± 6.5%. With `c1cc(-c2cnn3cc(-c4ccc(OCCN5CCCCC5)cc4)cnc23)ccn1` [Dorsomorphin], the “percent Bodipy-positive cells” value amounted to 12.6 ± 6.8% (library stock concentration: 80 uM), 21.7 ± 8% (library stock concentration: 400 uM), 42.5 ± 1.8% (library stock concentration: 2 mM) and 77.4 ± 4.5% under setting [2].

For the compound `c1cc2c3c(c1)c1c(n3CCNC2)CCCC1` [WAY 629 hydrochloride], under setting [2], the “percent Bodipy-positive cells” value worked out at 25.7 ± 4.6%. Take `CCCCCCCCCCCCCCCCOC[C@@H](O)COP(=O)(O)O` [1-Hexadecyl Lysophosphatidic Acid]: the “percent Bodipy-positive cells” value under setting [3] was determined as 8.86 ± 2.2%.

For `O=C1[C@H](CC[C@H](O)c2ccc(F)cc2)[C@@H](c2ccc(O)cc2)N1c1ccc(F)cc1` [Ezetimibe], the “percent Bodipy-positive cells” value is 16.8 ± 0.8% under setting [1]; 10.1 ± 4.1% (library stock concentration: 4.9 mM); 15.1% and 36.9% under setting [2].

Regarding `O=C1[C@H](CC[C@H](O)c2ccc(F)cc2)[C@@H](c2ccc(O)cc2)N1c1ccc(F)cc1`, the “percent Bodipy-positive cells” value under setting [2] was 14 ± 3.1%. As to `CC1COCCN1c1cc(C2(S(C)(=O)=O)CC2)nc(-c2cccc3[nH]ccc23)n1` (stereo not given), the “percent Bodipy-positive cells” value reads like this: under setting [1], 3.47 ± 0.061%; under setting [2], 33.8 ± 8.5%. Take `Cn1cc(C2=C(c3cn(CCCN)c4ccccc34)C(=O)NC2=O)c2ccccc21` [Bisindolylmaleimide VIII (acetate)]: the “percent Bodipy-positive cells” value under setting [3] was found to be 14.7 ± 1.7%. Turning to `CCN1C(=CC(C)=O)Sc2ccc(OC)cc21`, the “percent Bodipy-positive cells” value turned out to be 26 ± 2.5% under setting [1] and 36.3 ± 11% under setting [2].

Consider `COC(=O)CC(NC(=O)C(C)NC(=O)C(NC(=O)OCc1ccccc1)C(C)C)C(=O)CF` (stereo not given), for which the “percent Bodipy-positive cells” value was 11.51 ± 0.085% under setting [1] and 43.3 ± 0.047% under setting [2]. For the compound `Cc1cc(-c2ncc(CC(=O)Nc3ccc(-c4cnccn4)cn3)cc2C)ccn1`, the “percent Bodipy-positive cells” value was determined as 36.3 ± 7.3% under setting [1] and 44.7 ± 1.4% under setting [2]. On to `O=C(O)COCCN1CCN([C@H](c2ccccc2)c2ccc(Cl)cc2)CC1`, for which, under setting [2], the “percent Bodipy-positive cells” value is 11.1% and 32.5%. In the case of `Cc1cnc(C(=O)NCCc2ccc(S(=O)(=O)NC(=O)NC3CCCCC3)cc2)cn1` [Glipizide], the “percent Bodipy-positive cells” value amounted to 50.9 ± 20%. In addition, the “percent Bodipy-positive cells” value under setting [1] was determined as 9.98 ± 1.2%. The “percent Bodipy-positive cells” value (library stock concentration: 4.5 mM) is 8.06% and 21.7%.

`Cc1cnc(C(=O)NCCc2ccc(S(=O)(=O)NC(=O)NC3CCCCC3)cc2)cn1`: under setting [2], the “percent Bodipy-positive cells” value came out at 25.2 ± 2.7%.

In the case of `CN(C)[C@@H]1CCc2[nH]c3ccc(NC(=O)c4ccc(F)cc4)cc3c2C1.Cl`, under setting [2], the “percent Bodipy-positive cells” value came out at 85.7 ± 2.5%. For the compound `CCc1ccc2c(O)c3c(cc2c1C(=O)OC)C(=O)c1c(O)ccc(O)c1C3=O` [Bisanhydrorutilantinone], under setting [2], the “percent Bodipy-positive cells” value was 36.8 ± 1.8%. The same measure, in the same setting: for `O=C(Cc1ccccc1)Nc1nc2ccc(Cl)cc2c2nc(-c3ccco3)nn12` the value was 42.4 ± 8.1%. Same read-out and setting: as for `CC(C)NC[C@H](O)COc1cccc2[nH]ccc12` [(S)-(-)-Pindolol], the figure is 10.4 ± 1%; as for `CC(C)NC[C@H](O)COc1cccc2[nH]ccc12` [S(-)-Pindolol], 36.6 ± 13%. Regarding `NC(=O)Nc1sc(-c2ccccc2)cc1C(N)=O` [IKK-2 Inhibitor VI], the “percent Bodipy-positive cells” value under setting [1] was 12.8 ± 2.1%.

For the compound `CN1CCC(NC(=O)c2cc(-c3c(O)cc(O)cc3Oc3ccc([N+](=O)[O-])cc3)on2)CC1`, the “percent Bodipy-positive cells” value under setting [1] worked out at 86.5 ± 1.6%. For `CC(O)(P(=O)(O)O)P(=O)(O)O` [Etidronic acid, disodium salt], the “percent Bodipy-positive cells” value came to 6.29 ± 5%. On to `CC(O)(P(=O)(O)O)P(=O)(O)O` [Etidronate disodium], for which, under “library stock concentration: 8 mM”, the “percent Bodipy-positive cells” value was found to be 7.41 ± 3.6%. As to `COc1ccccc1N1CCN(CCCCNC(=O)c2ccc3ccccc3c2)CC1`, the “percent Bodipy-positive cells” value worked out at 57.6 ± 1.3%. Turning to `NC(=O)c1ccc[n+]([C@@H]2O[C@H](COP(=O)([O-])OP(=O)(O)OC[C@H]3O[C@@H](n4cnc5c(N)ncnc54)[C@H](OP(=O)(O)O)[C@@H]3O)[C@@H](O)[C@H]2O)c1` [Sodium beta-nicotinamide adenine dinucleotide phosphate], the “percent Bodipy-positive cells” value under setting [2] was 38.5 ± 3.7%. Take `CCC1NC(=O)c2cc(S(N)(=O)=O)c(Cl)cc2N1` (stereo not given) [Quinethazone]: the “percent Bodipy-positive cells” value worked out at 5.5 ± 1.3%.

Regarding `Nc1ncnc2c1C(=O)N(c1ccc([C@H]3CC[C@H](CC(=O)O)CC3)cc1)CCO2`, the “percent Bodipy-positive cells” value by setting is: under setting [1], 23.3 ± 5%; under setting [2], 43.37 ± 0.24%. On to `Cc1ccc2c(=O)c3ccccc3n(CCCN)c2c1C`, for which the “percent Bodipy-positive cells” value under setting [2] amounted to 54.4 ± 0.78%.

Regarding `Nc1ncnc2c1c(-c1cccc(OCc3ccccc3)c1)cn2[C@H]1C[C@H](CN2CCCC2)C1`, the “percent Bodipy-positive cells” value under setting [1] came out at 83 ± 2.6%.

In the case of `COc1ccc(CN2CCN(C(c3ccc(F)cc3)c3ccc(F)cc3)CC2)c(OC)c1OC` [Lomerizine HCl], the “percent Bodipy-positive cells” value by setting is: under setting [1], 26.6 ± 1.5%; under setting [2], 66.2 ± 11%. As for `CC(C)Cc1ccc(C(C)C(=O)O)cc1` (stereo not given), the “percent Bodipy-positive cells” value under setting [2] was 26.3 ± 5%. `CC(C)Cc1ccc(C(C)C(=O)O)cc1` (stereo not given) [(?)-Ibuprofen]: the “percent Bodipy-positive cells” value worked out at 6.03 ± 0.69% under setting [3] and 44.6 ± 7.8% under setting [2]. `CC(C)Cc1ccc(C(C)C(=O)O)cc1` (stereo not given) [Ibuprofen]: the “percent Bodipy-positive cells” value was 8.22 ± 3.7% under setting [1]; 6.04% and 3.84% (library stock concentration: 9.7 mM); 10.4% and 17.9% under setting [2].

For `COC1=CC(=O)C=C(OC)C1=O` [2,6-dimethoxyquinone], under setting [2], the “percent Bodipy-positive cells” value was found to be 98.28 ± 0.93%. As to `OCc1ccccn1`, the “percent Bodipy-positive cells” value under setting [2] amounted to 32.1 ± 10%. The same measure, in the same setting: as for `CN(C(=O)c1c(O)c2ccccc2n(C)c1=O)c1ccccc1` [Linomide], the figure is 4.83 ± 0.86%. Consider `CCCCC[C@H](O)/C=C/[C@@H]1[C@H](CCCCCCC(=O)O)[C@@H](O)C[C@H]1O` [8-iso Prostaglandin F1.alpha.], for which the “percent Bodipy-positive cells” value under setting [3] was found to be 13.9 ± 2.5%.
